Measurements: publication PMC12455829
No constants are given. Whether binding was seen depends on the method and setting. Binding seen in cells or lysates may run through a third protein. Here binding means that the protein was enriched with, or labelled near, the bait; the list need not be complete.

By UniProt entry, the sequences of proteins in these tests, tags left out.
UniProt P51532: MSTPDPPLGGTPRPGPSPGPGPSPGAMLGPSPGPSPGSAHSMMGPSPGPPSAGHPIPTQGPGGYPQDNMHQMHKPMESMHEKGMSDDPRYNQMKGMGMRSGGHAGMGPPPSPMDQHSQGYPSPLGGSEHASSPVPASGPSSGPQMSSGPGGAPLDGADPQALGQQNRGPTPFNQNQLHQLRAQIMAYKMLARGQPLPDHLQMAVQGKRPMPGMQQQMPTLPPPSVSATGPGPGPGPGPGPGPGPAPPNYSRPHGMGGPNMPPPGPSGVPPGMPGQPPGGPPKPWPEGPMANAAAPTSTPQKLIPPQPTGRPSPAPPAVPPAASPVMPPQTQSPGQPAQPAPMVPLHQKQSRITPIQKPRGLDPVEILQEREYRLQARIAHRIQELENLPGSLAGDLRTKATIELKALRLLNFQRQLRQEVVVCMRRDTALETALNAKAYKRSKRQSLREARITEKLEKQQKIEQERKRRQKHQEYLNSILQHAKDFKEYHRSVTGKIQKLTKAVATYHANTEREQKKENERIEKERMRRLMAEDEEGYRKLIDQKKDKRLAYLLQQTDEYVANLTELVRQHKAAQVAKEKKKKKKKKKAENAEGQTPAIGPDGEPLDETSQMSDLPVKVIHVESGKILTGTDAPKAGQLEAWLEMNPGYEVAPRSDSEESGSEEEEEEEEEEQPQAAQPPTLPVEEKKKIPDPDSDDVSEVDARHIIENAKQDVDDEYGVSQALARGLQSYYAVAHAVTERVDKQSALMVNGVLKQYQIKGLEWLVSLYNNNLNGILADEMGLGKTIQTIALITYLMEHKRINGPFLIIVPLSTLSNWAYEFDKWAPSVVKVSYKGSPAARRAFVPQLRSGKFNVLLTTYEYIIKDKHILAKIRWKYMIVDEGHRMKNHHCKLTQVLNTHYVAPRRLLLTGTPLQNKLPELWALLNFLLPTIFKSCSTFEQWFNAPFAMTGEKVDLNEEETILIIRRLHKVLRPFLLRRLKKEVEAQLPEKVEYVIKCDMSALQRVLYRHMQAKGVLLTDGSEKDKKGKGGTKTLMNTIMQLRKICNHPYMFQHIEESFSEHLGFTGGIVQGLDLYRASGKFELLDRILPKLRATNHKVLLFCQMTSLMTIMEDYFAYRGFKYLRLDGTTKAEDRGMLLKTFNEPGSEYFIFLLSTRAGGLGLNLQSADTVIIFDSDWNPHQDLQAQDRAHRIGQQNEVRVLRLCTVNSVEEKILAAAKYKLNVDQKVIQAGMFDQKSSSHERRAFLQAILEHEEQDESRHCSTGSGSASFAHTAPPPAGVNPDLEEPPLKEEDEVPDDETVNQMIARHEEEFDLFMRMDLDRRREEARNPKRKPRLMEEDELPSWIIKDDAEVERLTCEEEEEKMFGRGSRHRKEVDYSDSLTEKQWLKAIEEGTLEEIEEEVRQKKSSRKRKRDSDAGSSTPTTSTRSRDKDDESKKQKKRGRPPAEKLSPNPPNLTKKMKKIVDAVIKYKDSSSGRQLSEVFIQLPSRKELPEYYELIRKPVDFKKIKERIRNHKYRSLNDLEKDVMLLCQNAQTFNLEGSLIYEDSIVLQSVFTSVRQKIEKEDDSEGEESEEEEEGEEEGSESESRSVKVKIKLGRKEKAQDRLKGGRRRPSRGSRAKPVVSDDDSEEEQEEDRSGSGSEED

Tests used:
[1] = biological target: BRG1 (human (endogenous in MLS 402-91 and EWS TC-71)) (UniProt P51532); assay: affinity purification with mass spectrometry; BRG1 IP: biotinylated BRG1 antibody on streptavidin magnetic beads, 50 µg nuclear extract of MLS 402-91 or of EWS TC-71 cells, 150 mM KCl, 10 mM Tris pH 7.5, overnight at 4 °C; TMT quantitative mass spectrometry; hits > 1.5-fold over the IgG control
[2] = biological target: FUS::DDIT3 (human (endogenous in MLS 402-91)); assay: affinity purification with mass spectrometry; DDIT3 IP (pulls down FUS::DDIT3): biotinylated DDIT3 antibody on streptavidin magnetic beads, 50 µg nuclear extract of MLS 402-91 cells, 150 mM KCl, 10 mM Tris pH 7.5, overnight at 4 °C; TMT quantitative mass spectrometry; hits > 1.5-fold over the IgG control
[3] = biological target: BRG1 (human (endogenous in MLS 402-91 and EWS TC-71)), P51532; assay: affinity purification with mass spectrometry; BRG1 IP: biotinylated BRG1 antibody on streptavidin magnetic beads, 50 µg nuclear extract of MLS 402-91 or of EWS TC-71 cells, 150 mM KCl, 10 mM Tris pH 7.5, overnight at 4 °C; TMT quantitative mass spectrometry; hits > 1.5-fold over the IgG control; conditions: remark: other sources report otherwise

binding [1]	binding [2]	binding [3]	Binder
binds	binds	–	FOSL2 (protein, UniProt P15408 1-326) MYQDYPGNFDTSSRGSSGSPAHAESYSSGGGGQQKFRVDMPGSGSAFIPTINAITTSQDLQWMVQPTVITSMSNPYPRSHPYSPLPGLASVPGHMALPRPGVIKTIGTTVGRRRRDEQLSPEEEEKRRIRRERNKLAAAKCRNRRRELTEKLQAETEELEEEKSGLQKEIAELQKEKEKLEFMLVAHGPVCKISPEERRSPPAPGLQPMRSGGGSVGAVVVKQEPLEEDSPSSSSAGLDKAQRSVIKPISIAGGFYGEEPLHTPIVVTSTPAVTPGTSNLVFTYPSVLEQESPASPSESCSKAHRRSSSSGDQSSDSLNSPTLLAL
binds	binds	–	FOXP1 (protein, UniProt Q9H334 1-677) MMQESGTETKSNGSAIQNGSGGSNHLLECGGLREGRSNGETPAVDIGAADLAHAQQQQQQALQVARQLLLQQQQQQQVSGLKSPKRNDKQPALQVPVSVAMMTPQVITPQQMQQILQQQVLSPQQLQVLLQQQQALMLQQQQLQEFYKKQQEQLQLQLLQQQHAGKQPKEQQQVATQQLAFQQQLLQMQQLQQQHLLSLQRQGLLTIQPGQPALPLQPLAQGMIPTELQQLWKEVTSAHTAEETTGNNHSSLDLTTTCVSSSAPSKTSLIMNPHASTNGQLSVHTPKRESLSHEEHPHSHPLYGHGVCKWPGCEAVCEDFQSFLKHLNSEHALDDRSTAQCRVQMQVVQQLELQLAKDKERLQAMMTHLHVKSTEPKAAPQPLNLVSSVTLSKSASEASPQSLPHTPTTPTAPLTPVTQGPSVITTTSMHTVGPIRRRYSDKYNVPISSADIAQNQEFYKNAEVRPPFTYASLIRQAILESPEKQLTLNEIYNWFTRMFAYFRRNAATWKNAVRHNLSLHKCFVRVENVKGAVWTVDEVEFQKRRPQKISGNPSLIKNMQSSHAYCTPLNAALQASMAENSIPLYTTASMGNPTLGNLASAIREELNGAMEHTNSNESDSSPGRSPMQAVHPVHVKEEPLDPEEAEGPLSLVTTANHSPDFDHDRDYEDEPVNEDME
binds	–	–	ZNF687 (protein, UniProt Q8N1G0 1-1237) MGDMKTPDFDDLLAAFDIPDIDANEAIHSGPEENEGPGGPGKPEPGVGSESEDTAAASAGDGPGVPAQASDHGLPPPDISVVSVIVKNTVCPEQSEALAGGSAGDGAQAAGVTKEGPVGPHRMQNGFGSPEPSLPGTPHSPAPPSGGTWKEKGMEGKTPLDLFAHFGPEPGDHSDPLPPSAPSPTREGALTPPPFPSSFELAQENGPGMQPPVSSPPLGALKQESCSPHHPQVLAQQGSGSSPKATDIPASASPPPVAGVPFFKQSPGHQSPLASPKVPVCQPLKEEDDDEGPVDKSSPGSPQSPSSGAEAADEDSNDSPASSSSRPLKVRIKTIKTSCGNITRTVTQVPSDPDPPAPLAEGAFLAEASLLKLSPATPTSEGPKVVSVQLGDGTRLKGTVLPVATIQNASTAMLMAASVARKAVVLPGGTATSPKMIAKNVLGLVPQALPKADGRAGLGTGGQKVNGASVVMVQPSKTATGPSTGGGTVISRTQSSLVEAFNKILNSKNLLPAYRPNLSPPAEAGLALPPTGYRCLECGDAFSLEKSLARHYDRRSMRIEVTCNHCARRLVFFNKCSLLLHAREHKDKGLVMQCSHLVMRPVALDQMVGQPDITPLLPVAVPPVSGPLALPALGKGEGAITSSAITTVAAEAPVLPLSTEPPAAPATSAYTCFRCLECKEQCRDKAGMAAHFQQLGPPAPGATSNVCPTCPMMLPNRCSFSAHQRMHKNRPPHVCPECGGNFLQANFQTHLREACLHVSRRVGYRCPSCSVVFGGVNSIKSHIQTSHCEVFHKCPICPMAFKSGPSAHAHLYSQHPSFQTQQAKLIYKCAMCDTVFTHKPLLSSHFDQHLLPQRVSVFKCPSCPLLFAQKRTMLEHLKNTHQSGRLEETAGKGAGGALLTPKTEPEELAVSQGGAAPATEESSSSSEEEEVPSSPEPPRPAKRPRRELGSKGLKGGGGGPGGWTCGLCHSWFPERDEYVAHMKKEHGKSVKKFPCRLCERSFCSAPSLRRHVRVNHEGIKRVYPCRYCTEGKRTFSSRLILEKHVQVRHGLQLGAQSPGRGTTLARGSSARAQGPGRKRRQSSDSCSEEPDSTTPPAKSPRGGPGSGGHGPLRYRSSSSTEQSLMMGLRVEDGAQQCLDCGLCFASPGSLSRHRFISHKKRRGVGKASALGLGDGEEEAPPSRSDPDGGDSPLPASGGPLTCKVCGKSCDSPLNLKTHFRTHGMAFIRARQGAVGDN
–	–	binds	CTCF, P49711 1-727 (protein) MEGDAVEAIVEESETFIKGKERKTYQRRREGGQEEDACHLPQNQTDGGEVVQDVNSSVQMVMMEQLDPTLLQMKTEVMEGTVAPEAEAAVDDTQIITLQVVNMEEQPINIGELQLVQVPVPVTVPVATTSVEELQGAYENEVSKEGLAESEPMICHTLPLPEGFQVVKVGANGEVETLEQGELPPQEDPSWQKDPDYQPPAKKTKKTKKSKLRYTEEGKDVDVSVYDFEEEQQEGLLSEVNAEKVVGNMKPPKPTKIKKKGVKKTFQCELCSYTCPRRSNLDRHMKSHTDERPHKCHLCGRAFRTVTLLRNHLNTHTGTRPHKCPDCDMAFVTSGELVRHRRYKHTHEKPFKCSMCDYASVEVSKLKRHIRSHTGERPFQCSLCSYASRDTYKLKRHMRTHSGEKPYECYICHARFTQSGTMKMHILQKHTENVAKFHCPHCDTVIARKSDLGVHLRKQHSYIEQGKKCRYCDAVFHERYALIQHQKSHKNEKRFKCDQCDYACRQERHMIMHKRTHTGEKPYACSHCDKTFRQKQLLDMHFKRYHDPNFVPAAFVCSKCGKTFTRRNTMARHADNCAGPDGVEGENGGETKKSKRGRKRKMRSKKEDSSDSENAEPDLDDNEDEEEPAVEIEPEPEPQPVTPAPPPAKKRRGRPPGRTNQPKQNQPTAIIQVEDQNTGAIENIIVEVKKEPDAEPAEGEEEEAQPAATDAPNGDLTPEMILSMMDR
binds	binds	–	CAT (protein, UniProt P04040 1-527) MADSRDPASDQMQHWKEQRAAQKADVLTTGAGNPVGDKLNVITVGPRGPLLVQDVVFTDEMAHFDRERIPERVVHAKGAGAFGYFEVTHDITKYSKAKVFEHIGKKTPIAVRFSTVAGESGSADTVRDPRGFAVKFYTEDGNWDLVGNNTPIFFIRDPILFPSFIHSQKRNPQTHLKDPDMVWDFWSLRPESLHQVSFLFSDRGIPDGHRHMNGYGSHTFKLVNANGEAVYCKFHYKTDQGIKNLSVEDAARLSQEDPDYGIRDLFNAIATGKYPSWTFYIQVMTFNQAETFPFNPFDLTKVWPHKDYPLIPVGKLVLNRNPVNYFAEVEQIAFDPSNMPPGIEASPDKMLQGRLFAYPDTHRHRLGPNYLHIPVNCPYRARVANYQRDGPMCMQDNQGGAPNYYPNSFGAPEQQPSALEHSIQYSGEVRRFNTANDDNVTQVRAFYVNVLNEEQRKRLCENIAGHLKDAQIFIQKKAVKNFTEVHPDYGSHIQALLDKYNAEKPKNAIHTFVQSGSHLAAREKANL
binds	binds	–	CDYL (protein, UniProt Q9Y232 1-598) MTFQASHRSAWGKSRKKNWQYEGPTQKLFLKRNNVSAPDGPSDPSISVSSEQSGAQQPPALQVERIVDKRKNKKGKTEYLVRWKGYDSEDDTWEPEQHLVNCEEYIHDFNRRHTEKQKESTLTRTNRTSPNNARKQISRSTNSNFSKTSPKALVIGKDHESKNSQLFAASQKFRKNTAPSLSSRKNMDLAKSGIKILVPKSPVKSRTAVDGFQSESPEKLDPVEQGQEDTVAPEVAAEKPVGALLGPGAERARMGSRPRIHPLVPQVPGPVTAAMATGLAVNGKGTSPFMDALTANGTTNIQTSVTGVTASKRKFIDDRRDQPFDKRLRFSVRQTESAYRYRDIVVRKQDGFTHILLSTKSSENNSLNPEVMREVQSALSTAAADDSKLVLLSAVGSVFCCGLDFIYFIRRLTDDRKRESTKMAEAIRNFVNTFIQFKKPIIVAVNGPAIGLGASILPLCDVVWANEKAWFQTPYTTFGQSPDGCSTVMFPKIMGGASANEMLLSGRKLTAQEACGKGLVSQVFWPGTFTQEVMVRIKELASCNPVVLEESKALVRCNMKMELEQANERECEVLKKIWGSAQGMDSMLKYLQRKIDEF
binds	binds	–	FOXP4 (protein, UniProt Q8IVH2 1-680) MMVESASETIRSAPSGQNGVGSLSGQADGSSGGATGTTASGTGREVTTGADSNGEMSPAELLHFQQQQALQVARQFLLQQASGLSSPGNNDSKQSASAVQVPVSVAMMSPQMLTPQQMQQILSPPQLQALLQQQQALMLQQLQEYYKKQQEQLHLQLLTQQQAGKPQPKEALGNKQLAFQQQLLQMQQLQQQHLLNLQRQGLVSLQPNQASGPLQTLPQAAVCPTDLPQLWKGEGAPGQPAEDSVKQEGLDLTGTAATATSFAAPPKVSPPLSHHTLPNGQPTVLTSRRDSSSHEETPGSHPLYGHGECKWPGCETLCEDLGQFIKHLNTEHALDDRSTAQCRVQMQVVQQLEIQLAKESERLQAMMAHLHMRPSEPKPFSQPLNPVPGSSSFSKVTVSAADSFPDGLVHPPTSAAAPVTPLRPPGLGSASLHGGGPARRRSSDKFCSPISSELAQNHEFYKNADVRPPFTYASLIRQAILETPDRQLTLNEIYNWFTRMFAYFRRNTATWKNAVRHNLSLHKCFVRVENVKGAVWTVDEREYQKRRPPKMTGSPTLVKNMISGLSYGALNASYQAALAESSFPLLNSPGMLNPGSASSLLPLSHDDVGAPVEPLPSNGSSSPPRLSPPQYSHQVQVKEEPAEAEEDRQPGPPLGAPNPSASGPPEDRDLEEELPGEELS
binds	binds	–	ATF7 (protein, UniProt P17544 1-483) MGDDRPFVCNAPGCGQRFTNEDHLAVHKHKHEMTLKFGPARTDSVIIADQTPTPTRFLKNCEEVGLFNELASSFEHEFKKAADEDEKKAAAGPLDMSLPSTPDIKIKEEEPVEVDSSPPDSPASSPCSPPLKEKEVTPKPVLISTPTPTIVRPGSLPLHLGYDPLHPTLPSPTSVITQAPPSNRQMGSPTGSLPLVMHLANGQTMPVLPGPPVQMPSVISLARPVSMVPNIPGIPGPPVNSSGSISPSGHPIPSEAKMRLKATLTHQVSSINGGCGMVVGTASTMVTARPEQSQILIQHPDAPSPAQPQVSPAQPTPSTGGRRRRTVDEDPDERRQRFLERNRAAASRCRQKRKLWVSSLEKKAEELTSQNIQLSNEVTLLRNEVAQLKQLLLAHKDCPVTALQKKTQGYLESPKESSEPTGSPAPVIQHSSATAPSNGLSVRSAAEAVATSVLTQMASQRTELSMPIQSHVIMTPQSQSAGR
